For one substance, binding results are on record in paper PMC6390509.

Chains of the proteins cited; added tags and fusions are not shown.
UniProt Q38876: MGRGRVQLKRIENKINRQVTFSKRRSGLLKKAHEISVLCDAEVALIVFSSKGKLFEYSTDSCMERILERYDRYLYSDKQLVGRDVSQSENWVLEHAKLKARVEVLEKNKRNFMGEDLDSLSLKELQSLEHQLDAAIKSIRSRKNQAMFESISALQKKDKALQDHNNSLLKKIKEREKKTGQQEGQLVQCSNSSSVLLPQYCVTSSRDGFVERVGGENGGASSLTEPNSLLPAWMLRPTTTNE

Results are given in words; binding and its absence hold for the method and conditions named. Some entries that bind do so weakly or less than the wild type.

The assay addresses Arabidopsis FUL (Arabidopsis thaliana) (UniProt Q38876). As to the kind of experiment: two-hybrid; Full-length proteins fused to the GAL4 binding domain or activation domain, all baits and preys screened against each other; after mating, diploid yeast grown for 5 days on SD medium lacking Leu, Trp and His with 5 mM 3-amino-1,2,4 triazole; EpMADS8, EpMADS21 and EpMADS22 only as prey (auto-activation).

With “Arabidopsis FUL (from UniProt Q38876 1-242)”, the binding result is on record as “binds”.
